No constants are given. Whether binding was seen depends on the method and setting. In cells and extracts the contact can be indirect. Binding calls can cover weak binding; strength is not graded here.
Target: ERp44 Δ1 (mutations in the thioredoxin region, mutant in 30–138) with HA tag (UniProt Q9BS26)
Experiment: co-IP; 293T and CNE2 cells transfected with HA-tagged ERp44 variants; Pierce Co-Immunoprecipitation Kit, 4 °C; western blot with anti-ACLY and anti-HA-tag

Chains of the proteins cited; added tags and fusions are not shown. Lines headed by an entry give the natural chain unless they say otherwise; changes in a name come on top.
UniProt Q9BS26: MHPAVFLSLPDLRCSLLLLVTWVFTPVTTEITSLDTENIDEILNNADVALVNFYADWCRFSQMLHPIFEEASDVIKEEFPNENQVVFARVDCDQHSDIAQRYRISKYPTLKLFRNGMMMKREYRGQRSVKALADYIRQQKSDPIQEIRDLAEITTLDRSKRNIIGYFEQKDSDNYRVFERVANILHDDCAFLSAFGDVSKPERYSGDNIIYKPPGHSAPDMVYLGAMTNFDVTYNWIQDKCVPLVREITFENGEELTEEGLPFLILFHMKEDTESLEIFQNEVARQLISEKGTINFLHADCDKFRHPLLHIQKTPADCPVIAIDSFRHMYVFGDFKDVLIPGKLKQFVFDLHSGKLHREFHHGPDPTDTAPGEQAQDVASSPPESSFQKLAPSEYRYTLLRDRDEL
UniProt P53396: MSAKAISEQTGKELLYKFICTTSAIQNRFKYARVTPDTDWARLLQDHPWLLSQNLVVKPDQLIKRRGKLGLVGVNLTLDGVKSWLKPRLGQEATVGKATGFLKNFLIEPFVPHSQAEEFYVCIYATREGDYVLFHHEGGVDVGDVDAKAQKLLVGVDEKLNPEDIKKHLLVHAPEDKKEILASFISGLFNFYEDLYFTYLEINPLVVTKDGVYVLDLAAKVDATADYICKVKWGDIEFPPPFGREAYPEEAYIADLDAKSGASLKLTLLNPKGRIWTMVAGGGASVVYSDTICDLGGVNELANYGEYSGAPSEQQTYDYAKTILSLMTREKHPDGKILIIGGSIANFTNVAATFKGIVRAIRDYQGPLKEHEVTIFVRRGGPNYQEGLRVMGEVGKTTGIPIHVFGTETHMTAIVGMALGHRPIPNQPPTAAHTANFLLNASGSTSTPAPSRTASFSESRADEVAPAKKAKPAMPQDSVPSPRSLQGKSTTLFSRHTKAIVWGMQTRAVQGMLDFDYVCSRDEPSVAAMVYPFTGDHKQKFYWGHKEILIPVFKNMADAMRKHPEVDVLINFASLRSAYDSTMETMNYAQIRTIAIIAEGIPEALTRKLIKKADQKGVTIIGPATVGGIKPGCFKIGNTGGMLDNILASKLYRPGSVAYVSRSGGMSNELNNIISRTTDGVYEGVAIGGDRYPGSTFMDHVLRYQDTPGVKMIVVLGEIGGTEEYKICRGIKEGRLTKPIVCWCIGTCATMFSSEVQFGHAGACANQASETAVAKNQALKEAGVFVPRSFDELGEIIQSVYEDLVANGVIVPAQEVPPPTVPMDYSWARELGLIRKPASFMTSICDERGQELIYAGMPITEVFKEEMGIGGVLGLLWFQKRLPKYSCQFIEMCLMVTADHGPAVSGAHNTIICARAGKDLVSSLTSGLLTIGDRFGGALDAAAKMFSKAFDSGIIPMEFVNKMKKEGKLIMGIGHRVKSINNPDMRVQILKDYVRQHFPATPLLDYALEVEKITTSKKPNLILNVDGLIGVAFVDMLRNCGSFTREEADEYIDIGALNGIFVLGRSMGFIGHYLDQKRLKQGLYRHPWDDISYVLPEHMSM

ATP citrate lyase in 293T and CNE2 cells transfected with the ERp44 variants (from UniProt P53396 1-1101) (enzyme)
binding: binds
